Experimental data taken from publication PMC3180432.
No constants are given. Whether binding was seen depends on the method and setting. Binding seen in cells or lysates may run through a third protein. Some results given as binding are weak or reduced against the parent protein; the word gives no strength.

Chains of the proteins cited; added tags and fusions are not shown. Residues count along the entry.
UniProt Q9EP73, residues 19-290: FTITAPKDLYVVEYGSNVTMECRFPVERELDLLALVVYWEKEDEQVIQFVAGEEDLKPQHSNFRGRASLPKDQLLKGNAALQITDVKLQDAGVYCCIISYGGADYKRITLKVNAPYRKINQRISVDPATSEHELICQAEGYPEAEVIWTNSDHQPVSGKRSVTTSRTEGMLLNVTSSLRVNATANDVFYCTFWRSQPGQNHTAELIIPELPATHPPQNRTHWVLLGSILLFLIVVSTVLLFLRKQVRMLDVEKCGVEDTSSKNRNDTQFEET
UniProt Q00609, residues 38-306: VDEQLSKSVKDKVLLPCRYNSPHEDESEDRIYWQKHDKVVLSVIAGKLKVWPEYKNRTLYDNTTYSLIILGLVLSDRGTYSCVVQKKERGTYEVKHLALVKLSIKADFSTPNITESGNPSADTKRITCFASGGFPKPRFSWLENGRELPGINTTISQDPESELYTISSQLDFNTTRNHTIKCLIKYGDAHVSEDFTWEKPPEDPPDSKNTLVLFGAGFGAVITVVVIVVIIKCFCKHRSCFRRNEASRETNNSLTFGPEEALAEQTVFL
UniProt P06213, residues 28-1382: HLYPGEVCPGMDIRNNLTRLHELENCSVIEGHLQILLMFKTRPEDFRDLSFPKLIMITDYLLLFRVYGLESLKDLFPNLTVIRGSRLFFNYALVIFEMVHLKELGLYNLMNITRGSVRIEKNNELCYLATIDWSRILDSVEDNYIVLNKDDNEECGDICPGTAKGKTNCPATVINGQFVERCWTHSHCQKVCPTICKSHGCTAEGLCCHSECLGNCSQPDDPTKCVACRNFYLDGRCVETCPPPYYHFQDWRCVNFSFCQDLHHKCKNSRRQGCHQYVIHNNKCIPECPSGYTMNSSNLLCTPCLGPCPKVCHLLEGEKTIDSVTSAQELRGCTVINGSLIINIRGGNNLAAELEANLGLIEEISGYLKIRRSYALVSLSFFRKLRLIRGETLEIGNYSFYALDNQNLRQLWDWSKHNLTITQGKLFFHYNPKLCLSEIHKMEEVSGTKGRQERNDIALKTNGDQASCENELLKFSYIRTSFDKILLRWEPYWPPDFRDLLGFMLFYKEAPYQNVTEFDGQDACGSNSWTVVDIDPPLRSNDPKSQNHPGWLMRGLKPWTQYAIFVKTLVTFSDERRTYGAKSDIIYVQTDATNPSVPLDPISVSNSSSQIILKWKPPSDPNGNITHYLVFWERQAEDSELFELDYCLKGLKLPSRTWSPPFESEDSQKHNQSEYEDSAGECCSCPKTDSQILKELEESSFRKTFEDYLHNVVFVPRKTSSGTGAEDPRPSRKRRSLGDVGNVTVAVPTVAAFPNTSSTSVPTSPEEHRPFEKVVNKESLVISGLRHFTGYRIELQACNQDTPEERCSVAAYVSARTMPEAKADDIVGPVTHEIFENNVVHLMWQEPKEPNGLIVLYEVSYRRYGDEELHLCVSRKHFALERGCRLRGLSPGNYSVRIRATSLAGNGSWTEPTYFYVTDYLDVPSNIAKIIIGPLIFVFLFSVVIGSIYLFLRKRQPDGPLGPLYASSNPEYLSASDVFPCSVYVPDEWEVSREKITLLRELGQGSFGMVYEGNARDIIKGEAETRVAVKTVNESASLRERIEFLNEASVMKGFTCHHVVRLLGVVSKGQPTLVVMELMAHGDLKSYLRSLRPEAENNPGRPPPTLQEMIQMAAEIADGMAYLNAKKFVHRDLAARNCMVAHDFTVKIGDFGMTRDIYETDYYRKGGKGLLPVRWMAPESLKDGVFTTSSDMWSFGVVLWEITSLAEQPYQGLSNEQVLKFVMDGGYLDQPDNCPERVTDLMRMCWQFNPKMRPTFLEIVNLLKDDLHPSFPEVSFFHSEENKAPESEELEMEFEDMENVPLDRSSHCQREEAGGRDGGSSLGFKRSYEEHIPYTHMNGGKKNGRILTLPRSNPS

Columns and labels:
[1] = target: B7-H1 fused to Rluc8 or YPet (mouse) (UniProt Q9EP73); experiment: FRET or BRET; BRET donor saturation in live transfected HeLa cells: constant Rluc8 fusion (donor), increasing YPet fusion (acceptor), coelenterazine H 5 uM
[2] = target: B7.1 fused to Rluc8 or YPet (mouse) (UniProt Q00609); experiment: as above

Row | Substance | binding [1] | binding [2]
1 | B7-H1 fused to Rluc8 or YPet (from UniProt Q9EP73 19-290) (receptor) | binds | 
2 | insulin receptor fused to YPet (from UniProt P06213 28-1382) | no binding | no binding
3 | B7.1 fused to Rluc8 or YPet (from UniProt Q00609 38-306) (receptor) |  | binds
